Results are given in words; binding and its absence hold for the method and conditions named. In cells and extracts the contact can be indirect. For part of these data: Binding can be weak; no strength is given. For part of these data: Tags and fused reporters may be left off the sequences shown. Values belong to the molecule of their own block, whether it stands above or below them.
Assays:
[1] = target: T1, GlyT2 (neuronal glycine transporter 2), wild type (rat) (UniProt P58295); assay: co-IP
T1 sequence: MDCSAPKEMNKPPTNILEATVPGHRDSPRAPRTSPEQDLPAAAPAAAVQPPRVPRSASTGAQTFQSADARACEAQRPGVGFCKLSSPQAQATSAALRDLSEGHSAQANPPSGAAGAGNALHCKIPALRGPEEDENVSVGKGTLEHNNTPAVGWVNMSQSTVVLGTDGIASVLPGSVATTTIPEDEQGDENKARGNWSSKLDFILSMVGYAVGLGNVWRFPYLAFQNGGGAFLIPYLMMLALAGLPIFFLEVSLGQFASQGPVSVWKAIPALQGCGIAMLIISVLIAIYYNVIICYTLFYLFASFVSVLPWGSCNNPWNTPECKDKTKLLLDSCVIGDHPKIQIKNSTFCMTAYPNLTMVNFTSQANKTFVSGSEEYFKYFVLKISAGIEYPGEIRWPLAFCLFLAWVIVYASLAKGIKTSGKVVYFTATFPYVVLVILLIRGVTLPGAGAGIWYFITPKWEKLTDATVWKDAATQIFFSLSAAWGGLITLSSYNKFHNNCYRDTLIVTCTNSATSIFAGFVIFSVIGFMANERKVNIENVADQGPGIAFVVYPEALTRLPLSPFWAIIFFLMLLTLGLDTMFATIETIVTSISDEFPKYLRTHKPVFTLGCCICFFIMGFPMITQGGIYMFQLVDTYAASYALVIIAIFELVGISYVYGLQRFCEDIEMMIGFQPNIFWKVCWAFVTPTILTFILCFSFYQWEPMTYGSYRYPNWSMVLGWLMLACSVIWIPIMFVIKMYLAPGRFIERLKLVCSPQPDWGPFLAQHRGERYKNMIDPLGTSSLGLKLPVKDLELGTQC

[2] = target: GST fused to the N-terminus of GlyT2 (rat); assay: pull-down
Myc-tagged p70-LNX1 = assay: co-IP

- binding [1]: binds
Molecule: Myc-tagged p70-LNX1

- binding [2]: no binding
B1: FLAG-tagged p80-LNX1 (Ligand of Numb protein X1, isoform p80) (enzyme, UniProt O70263 1-728)
chain: MNQPDLADDPDPSPEPLCIVCGQNHSPEENHFYTYTEDVDDDLICHICLQALLDPLDTPCGHTYCTLCLTNFLVEKDFCPVDRKPVVLQHCKKSSILVNKLLNKLLVTCPFTEHCTEVLQRCDLQHHFQTSCKGASHYGLTKDRKRRSQDGCPDGCASLMATTLSPEVSAAATISLMTDEPGLDNPAYVSSVEDGEPVANSSDSGRSNRTRARPFERSTMRSRSFKKINRALSALRRTKSGSVVANHVDQGRDNSENTTVPEVFPRLFHLIPDGEITSIKINRADPSESLSIRLVGGSETPLVHIIIQHIYRDGVIARDGRLLPGDIILKVNGMDISNVPHNYAVRLLRQPCQVLRLTVLREQKFRSRSNAHVPDSYGPRDDSFHVILNKSSPEEQLGIKLVRRVDEPGVFIFNVLNGGVADRHGQLEENDRVLAINGHDLRFGSPESAAHLIQASERRVHLVVSRQVRQSSPDIFQEAGWISNGQQSPGPGERNTASKPAATCHEKVVSVWKDPSESLGMTVGGGASHREWDLPIYVISVEPGGVISRDGRIKTGDILLNVNGIELTEVSRTEAVAILKSAPSSVVLKALEVKEQEAQEDCSPAALDSNHNVTPPGDWSPSWVMWLELPQYLCNCKDVILRRNTAGSLGFCIVGGYEEYSGNKPFFIKSIVEGTPAYNDGRIRCGDILLAVNGRSTSGMIHACLARMLKELKGRITLTIASWPGTFL

- binding (Myc-tagged p70-LNX1): binds
B2: GlyT2 (neuronal glycine transporter 2), wild type (protein, UniProt P58295 1-799)
chain: T1 sequence
